Laboratory results: patent publication US7265132B2, “Compounds useful as reversible inhibitors of cysteine proteases” (Boehringer Ingelheim Pharmaceuticals Inc., priority 1999, dated 2007)
Some results were stated once for a whole list of compounds, not compound by compound.

By UniProt entry, the sequences of proteins in these tests, tags left out. Residues count along the entry.
UniProt P25774, 115-331: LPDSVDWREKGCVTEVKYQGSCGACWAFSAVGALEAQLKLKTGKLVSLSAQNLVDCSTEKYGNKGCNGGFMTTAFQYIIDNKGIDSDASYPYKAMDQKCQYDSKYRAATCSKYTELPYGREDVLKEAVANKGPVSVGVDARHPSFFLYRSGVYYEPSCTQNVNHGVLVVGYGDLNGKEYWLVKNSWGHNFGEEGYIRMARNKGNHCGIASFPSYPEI

Each compound was assayed against T1, Cathepsin S (Homo sapiens, UniProt P25774) (assay: Inhibition of Cathepsin S in a cell based assay (Riese et al., Immunity 1996)). Settings: compounds of formulas (I) and (II).
T1 construct: endogenous in cells

Concentration at which potent inhibition of Cathepsin S in a cell based assay was demonstrated, ≤ 15 µM:
CCC(CC)N1CCC(C#N)(NC(=O)C(CC2CCCCC2)NC(=O)N2CCOCC2)C1 (stereo not shown) [Morpholine-4-carboxylic acid {1-[3-cyano-1-(1-ethyl-propyl)-pyrrolidin-3-ylcarbamoyl]-2-cyclohexyl-ethyl}-amide]
CCC(CC)N1CCC(C#N)(NC(=O)C(CC(C)(C)C)NC(=O)N2CCOCC2)C1 (stereo not shown) [Morpholine-4-carboxylic acid {1-[3-cyano-1-(1-ethyl-propyl)-pyrrolidin-3-ylcarbamoyl]-3,3-dimethyl-butyl}-amide]
CC(C)N1CCC(C#N)(NC(=O)C(CC2CCCCC2)NC(=O)N2CCOCC2)C1 (stereo not shown) [Morpholine-4-carboxylic acid {1-[3-cyano-1-(1-methyl-ethyl)-pyrrolidin-3-ylcarbamoyl]-2-cyclohexyl-ethyl}-amide]
CN1CCC(N2CCC(C#N)(NC(=O)C(CC3CCCCC3)NC(=O)N3CCOCC3)C2)CC1 (stereo not shown) [Morpholine-4-carboxylic acid {1-[3-cyano-1-(1-methyl-piperidine-4-yl)-pyrrolidin-3-ylcarbamoyl]-2-cyclohexyl-ethyl}-amide]
N#CC1(NC(=O)C(CC2CCCCC2)NC(=O)N2CCOCC2)CCN(Cc2cccnc2)C1 (stereo not shown) [Morpholine-4-carboxylic acid {1-[3-cyano-1-(1-pyridin-3-ylmethyl)-pyrrolidin-3-ylcarbamoyl]-2-cyclohexyl-ethyl}-amide]
N#CC1(NC(=O)C(CC2CCCCC2)NC(=O)N2CCOCC2)CCN(Cc2c[nH]c3ccccc23)C1 (stereo not shown) [Morpholine-4-carboxylic acid {1-[3-cyano-1-(1H-indol-3-ylmethyl)-pyrrolidin-3-ylcarbamoyl]-2-cyclohexyl-ethyl}-amide]
Cc1cc(C)c(CN2CCC(C#N)(NC(=O)C(CC3CCCCC3)NC(=O)N3CCOCC3)C2)c(C)c1 (stereo not shown) [Morpholine-4-carboxylic acid {1-[3-cyano-1-(2,4,6-trimethyl-benzyl)-pyrrolidin-3-ylcarbamoyl]-2-cyclohexyl-ethyl}-amide]
N#CC1(NC(=O)C(CC2CCCCC2)NC(=O)N2CCOCC2)CCN(Cc2c(F)cccc2F)C1 (stereo not shown) [Morpholine-4-carboxylic acid {1-[3-cyano-1-(2,6-difluoro-benzyl)-pyrrolidin-3-ylcarbamoyl]-2-cyclohexyl-ethyl}-amide]
N#CC1(NC(=O)C(CC2CCCCC2)NC(=O)N2CCOCC2)CCN(Cc2ccccc2OCc2ccccc2)C1 (stereo not shown) [Morpholine-4-carboxylic acid {1-[3-cyano-1-(2-benzyloxy-benzyl)-pyrrolidin-3-ylcarbamoyl]-2-cyclohexyl-ethyl}-amide]
CCC=C(C)CN1CCC(C#N)(NC(=O)C(CC2CCCCC2)NC(=O)N2CCOCC2)C1 (stereo not shown) [Morpholine-4-carboxylic acid {1-[3-cyano-1-(2-methyl-pent-2-enyl)-pyrrolidin-3-ylcarbamoyl]-2-cyclohexyl-ethyl}-amide]
N#CC1(NC(=O)C(CC2CCCCC2)NC(=O)N2CCOCC2)CCN(Cc2ccccc2Oc2ccccc2)C1 (stereo not shown) [Morpholine-4-carboxylic acid {1-[3-cyano-1-(2-phenoxy-benzyl)-pyrrolidin-3-ylcarbamoyl]-2-cyclohexyl-ethyl}-amide]
N#CC1(NC(=O)C(CC2CCCCC2)NC(=O)N2CCOCC2)CCN(Cc2cc(F)cc(F)c2)C1 (stereo not shown) [Morpholine-4-carboxylic acid {1-[3-cyano-1-(3,5-difluoro-benzyl)-pyrrolidin-3-ylcarbamoyl]-2-cyclohexyl-ethyl}-amide]
N#CC1(NC(=O)C(CC2CCCCC2)NC(=O)N2CCOCC2)CCN(Cc2cccc(OCc3ccccc3)c2)C1 (stereo not shown) [Morpholine-4-carboxylic acid {1-[3-cyano-1-(3-benzyloxy-benzyl)-pyrrolidin-3-ylcarbamoyl]-2-cyclohexyl-ethyl}-amide]
COc1cccc(CN2CCC(C#N)(NC(=O)C(CC3CCCCC3)NC(=O)N3CCOCC3)C2)c1 (stereo not shown) [Morpholine-4-carboxylic acid {1-[3-cyano-1-(3-methoxy-benzyl)-pyrrolidin-3-ylcarbamoyl]-2-cyclohexyl-ethyl}-amide]
Cc1cccc(CN2CCC(C#N)(NC(=O)C(CC3CCCCC3)NC(=O)N3CCOCC3)C2)c1 (stereo not shown) [Morpholine-4-carboxylic acid {1-[3-cyano-1-(3-methyl-benzyl)-pyrrolidin-3-ylcarbamoyl]-2-cyclohexyl-ethyl}-amide]
N#CC1(NC(=O)C(CC2CCCCC2)NC(=O)N2CCOCC2)CCN(Cc2cccc(Oc3ccccc3)c2)C1 (stereo not shown) [Morpholine-4-carboxylic acid {1-[3-cyano-1-(3-phenoxy-benzyl)-pyrrolidin-3-ylcarbamoyl]-2-cyclohexyl-ethyl}-amide]
N#CC1(NC(=O)C(CC2CCCCC2)NC(=O)N2CCOCC2)CCN(Cc2cccc(C(F)(F)F)c2)C1 (stereo not shown) [Morpholine-4-carboxylic acid {1-[3-cyano-1-(3-trifluoromethyl-benzyl)-pyrrolidin-3-ylcarbamoyl]-2-cyclohexyl-ethyl}-amide]
N#CC1(NC(=O)C(CC2CCCCC2)NC(=O)N2CCOCC2)CCN(Cc2ccc(F)cc2)C1 (stereo not shown) [Morpholine-4-carboxylic acid {1-[3-cyano-1-(4-fluoro-benzyl)-pyrrolidin-3-ylcarbamoyl]-2-cyclohexyl-ethyl}-amide]
Cc1ccc(CN2CCC(C#N)(NC(=O)C(CC3CCCCC3)NC(=O)N3CCOCC3)C2)s1 (stereo not shown) [Morpholine-4-carboxylic acid {1-[3-cyano-1-(5-methyl-thiophen-2-ylmethyl)-pyrrolidin-3-ylcarbamoyl]-2-cyclohexyl-ethyl}-amide]
N#CC1(NC(=O)C(CC2CCCCC2)NC(=O)N2CCOCC2)CCN(CC2CCCCC2)C1 (stereo not shown) [Morpholine-4-carboxylic acid {1-[3-cyano-1-(cyclohexyl-methyl)-pyrrolidin-3-ylcarbamoyl]-2-cyclohexyl-ethyl}-amide]
N#CC1(NC(=O)C(CC2CCCCC2)NC(=O)N2CCOCC2)CCN(CC2Cc3ccccc3C2)C1 (stereo not shown) [Morpholine-4-carboxylic acid {1-[3-cyano-1-(indan-2-ylmethyl)-pyrrolidin-3-ylcarbamoyl]-2-cyclohexyl-ethyl}-amide]
N#CC1(NC(=O)C(CC2CCCCC2)NC(=O)N2CCOCC2)CCN(Cc2ccc3ccccc3c2)C1 (stereo not shown) [Morpholine-4-carboxylic acid {1-[3-cyano-1-(naphthalen-2-ylmethyl)-pyrrolidin-3-ylcarbamoyl]-2-cyclohexyl-ethyl}-amide]
N#CC1(NC(=O)C(CC2CCCCC2)NC(=O)N2CCOCC2)CCN(C(=O)c2ccncc2)CC1 (stereo not shown) [Morpholine-4-carboxylic acid {1-[4-cyano-1-(pyridine-4-carbonyl)-piperidin-4-ylcarbamoyl]-2-cyclohexyl-ethyl}-amide]
CC(C)(C)CC(NC(=O)N1CCOCC1)C(=O)NC1(C#N)CCN(C2CCOCC2)CC1 (stereo not shown) [Morpholine-4-carboxylic acid {1-[4-cyano-1-(tetrahydro-pyran-4-yl)-piperidin-4-ylcarbamoyl]-3,3-dimethyl-butyl}-amide]
N#CC1(NC(=O)C(CC2CCCCC2)NC(=O)Cc2cccs2)CCN(Cc2ccccc2)C1 (stereo not shown) [N-(1-Benzyl-3-cyano-pyrrolidin-3-yl)-3-cyclohexyl-2-(2-thiophen-2-yl-acetylamino)-propionamide]
CN1CCC(C#N)(NC(=O)C(CC2CCCCC2)NC(=S)N2CCOCC2)CC1 (stereo not shown) [N-(4-Cyano-1-methyl-piperidin-4-yl)-3-cyclohexyl-2-[(morpholine-4-carbothioyl)-amino]-propionamide]
N#CC1(NC(=O)C(CC2CCCCC2)NC(=O)c2cccc(Oc3ccccc3)c2)CCN(Cc2ccccc2)C1 (stereo not shown) [N-[1-(1-Benzyl-3-cyano-pyrrolidin-3-ylcarbamoyl)-2-cyclohexyl-ethyl]-3-phenoxy-benzamide]
N#CC1(NC(=O)C(CC2CCCCC2)NC(=O)c2ccc(Cl)cc2)CCN(Cc2ccccc2)C1 (stereo not shown) [N-[1-(1-Benzyl-3-cyano-pyrrolidin-3-ylcarbamoyl)-2-cyclohexyl-ethyl]-4-chloro-benzamide]
CS(=O)(=O)Nc1ccc(C(=O)NC(CC2CCCCC2)C(=O)NC2(C#N)CCN(Cc3ccccc3)C2)cc1 (stereo not shown) [N-[1-(1-Benzyl-3-cyano-pyrrolidin-3-ylcarbamoyl)-2-cyclohexyl-ethyl]-4-methanesulfonylamino-benzamide]
N#CC1(NC(=O)C(CC2CCCCC2)NC(=O)c2ccccc2)CCN(Cc2ccccc2)C1 (stereo not shown) [N-[1-(1-Benzyl-3-cyano-pyrrolidin-3-ylcarbamoyl)-2-cyclohexyl-ethyl]-benzamide]
CC(C)C(=O)NC(CC1CCCCC1)C(=O)NC1(C#N)CCN(Cc2ccccc2)C1 (stereo not shown) [N-[1-(1-Benzyl-3-cyano-pyrrolidin-3-ylcarbamoyl)-2-cyclohexyl-ethyl]-isobutyramide]
